The experiment relates to Salmonella enterica serovar Typhimurium SL1344. The experiment can be described thus: bacterial growth OD600 after 18 h with compound and polymyxin B; higher = more bacterial growth (less inhibition). The note with it: 50 µM, Mueller-Hinton broth.

Some of the results follow. Values are raw readings; no control value is given beside them.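 Primary screen: polymyxin B was added at a level permeabilizing Salmonella outer membranes while sparing inner membranes. DMSO wells, both with and without polymyxin B, established maximum growth. Plate-to-plate variation meant each plate was ranked on its own, and the lowest-OD600 compounds were selected as hits.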

For `Cc1c(C(C)NCc2ccc(F)cc2F)cnn1-c1cccc(F)c1` (stereo unspecified), the “bacterial growth OD600” value (polymyxin B 0.75 µg/mL) was determined as 0.776. For the molecule `COc1cc(OC)c(OC)cc1CN1CCC(CO)(CCCc2ccccc2)CC1`, the “bacterial growth OD600” value (polymyxin B 1 µg/mL) is 0.882. With `O=C(c1ccc(NC2CCC2)nc1)N1CCC(CCn2cccn2)CC1`, the “bacterial growth OD600” value (polymyxin B 1 µg/mL) was 0.962. Take `CC1CCN(C(=O)CCC2(Cc3ccc4ccccc4c3)CCC(=O)N2)CC1` (stereo unspecified): the “bacterial growth OD600” value (polymyxin B 0.75 µg/mL) turned out to be 0.847. On to `Cc1ccc2oc(C(=O)N3CCC(O)(c4ccccc4)CC3)c(C)c2c1`, for which the “bacterial growth OD600” value (polymyxin B 1 µg/mL) turned out to be 0.856. As to `Cc1oc(-c2ccc(Cl)cc2)nc1CN1CCOCC1`, for the setting “polymyxin B 1 µg/mL”, the “bacterial growth OD600” value stood at 0.7.

Take `CCO[C@H]1[C@H](NC(=O)c2ccco2)c2ccccc2C12CCN(C(=O)[C@H]1C[C@@H]3C=C[C@H]1C3)CC2`: under “polymyxin B 0.75 µg/mL”, the “bacterial growth OD600” value was 0.629. For `CC(C)c1nc(CNc2nncc(-c3cccc(F)c3)n2)cs1`, for the setting “polymyxin B 1 µg/mL”, the “bacterial growth OD600” value was determined as 0.804. Turning to `CN(C(=O)c1ccc(Cl)s1)C1CCCN(CCc2ccccc2)C1` (stereo unspecified), the “bacterial growth OD600” value (polymyxin B 0.75 µg/mL) came to 0.46.

For the molecule `Cc1cc(CN(C)C(=O)c2coc(COc3cccc(F)c3F)n2)on1`, under “polymyxin B 0.75 µg/mL”, the “bacterial growth OD600” value worked out at 0.756. With `COc1cccc(CC(C2CCN(C(=O)CC3CCCCC3)CC2)N(C)C(=O)c2ccn(C)n2)c1` (stereo unspecified), the “bacterial growth OD600” value (polymyxin B 0.75 µg/mL) was found to be 0.737. `CCOC(=O)C1(CCCc2ccccc2)CCN(C(=O)CN2C(=O)CSC2=O)CC1`: the “bacterial growth OD600” value (polymyxin B 1 µg/mL) was determined as 0.818. For the molecule `Cc1ccccc1CN1CCC(N2CCC(C(=O)N3CCCC3)CC2)CC1`, for the setting “polymyxin B 1 µg/mL”, the “bacterial growth OD600” value stood at 0.908.

In the case of `O=C(NCC1CCCN(Cc2cccc(F)c2F)C1)c1cccs1` (stereo unspecified), for the setting “polymyxin B 1 µg/mL”, the “bacterial growth OD600” value is 0.875. Same read-out and setting: the figure for `O=C(NC1CCCCCCC1)C1CCC(=O)N(CCc2cccc(F)c2)C1` (stereo unspecified) is 0.707.

`C/C=C(\C)C(=O)N1CCC(C2(Cc3cccc(F)c3)NC(=O)N(CCCN(C)C)C2=O)CC1` (stereo unspecified): the “bacterial growth OD600” value (polymyxin B 0.75 µg/mL) stood at 0.85. Regarding `O=C(NCc1ccccc1F)C1CCCN(C2CCN(C(=O)C3CC3)CC2)C1` (stereo unspecified), for the setting “polymyxin B 0.75 µg/mL”, the “bacterial growth OD600” value amounted to 0.796. For `COc1ccc(OC)c(Cc2nnc(CCC(=O)NC(C)c3nccs3)o2)c1` (stereo unspecified), the “bacterial growth OD600” value (polymyxin B 1 µg/mL) came to 0.821. For the molecule `O=C1CCC(CCC(=O)N2CCC(c3ccccc3F)C2)(Cc2ccc3ccccc3c2)N1` (stereo unspecified), the “bacterial growth OD600” value (polymyxin B 0.75 µg/mL) is 0.011. As for `CCNC(=O)c1cn(CC(C)C)cc(C(=O)N(C)Cc2ccccc2)c1=O`, the “bacterial growth OD600” value (polymyxin B 0.75 µg/mL) is 0.826. Same read-out and setting: to `OC(c1ccc2c(c1)CN(Cc1cccnc1)CCO2)C(c1ccccc1)c1ccccc1` (stereo unspecified) belongs 0.748; to `Cn1c(C2CCC2)nc2cc(C(=O)NCc3nc4c(s3)CCCC4)cc(NC(=O)C3CCCO3)c21` (stereo unspecified), 0.848; to `Cc1nc(CN2CCN(C(=O)CCN3Cc4ccccc4OC(c4ccccc4F)C3)CC2)cs1` (stereo unspecified), 0.777. As for `CSc1cccc(CNC(=O)c2ccc3oc(C(C)C)nc3c2)c1`, the “bacterial growth OD600” value (polymyxin B 0.75 µg/mL) was 0.364. For `Cc1c(C(C)NCc2ccccc2F)cnn1-c1cccc(F)c1` (stereo unspecified), the “bacterial growth OD600” value (polymyxin B 1 µg/mL) came to 0.877. On the same count and under the same terms, the figure for `O=C(CC1CC1)NC1CCCN(Cc2ccccc2F)C1` (stereo unspecified) is 0.963. As for `CC(C)OCCCN1C(=O)CCC1CCNCc1cc2c(cc1Cl)OCO2` (stereo unspecified), the “bacterial growth OD600” value (polymyxin B 0.75 µg/mL) stood at 0.934. As to `C=C(C)CN(CC)C(=O)CC1C(=O)NCCN1Cc1c(F)cccc1Cl` (stereo unspecified), the “bacterial growth OD600” value (polymyxin B 1 µg/mL) came to 0.842. As to `CSCCC(=O)N1CCCC(CCC(=O)NCc2ccccc2Cl)C1` (stereo unspecified), for the setting “polymyxin B 1 µg/mL”, the “bacterial growth OD600” value is 1.22. For `CC(C)CN(C)C(=O)C1CCCN(C2CCN(C(=O)C3CC3)CC2)C1` (stereo unspecified), the “bacterial growth OD600” value (polymyxin B 0.75 µg/mL) stood at 0.783. As for `COc1ccc(C(=O)Nc2ccnn2C2CCN(C(=O)CCc3ccccc3)CC2)cc1`, the “bacterial growth OD600” value (polymyxin B 1 µg/mL) worked out at 0.86.

The values above are taken from the supplement of paper PMC12889115.
